# Source: PubChem BioAssay AID1347423 (Functional Genomics Laboratory (NCATS/FGL), 2020)
# Screen size: about 52,000 sequences; about 210 (0.4%) were called active.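 The calls were made as follows: active = gene whose silencing raises cell survival under the drug, median off-target-corrected z-score across its silencing RNAs 2 or more; inactive = the rest.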 Some of the results follow.
# Experiment: Resistance to Poly (ADP-Ribose) Polymerase inhibitor: Gene Identification via Genome-wide siRNA Screen
# Settings: mouse BRCA2 R2336H ES cells, olaparib, CellTiter-Glo viability; active compounds read high
# In short: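 Genome-wide siRNA screen (3 siRNAs/gene, 20 nM) in mouse ES cells carrying hypomorphic BRCA2 R2336H; olaparib 500 nM added 48 h post-transfection, CellTiter-Glo viability 72 h later. Normalized to plate-median negative control; MAD z-scores, gene median, seed-adjusted.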
row,Sequence,z-score
1,CCUUAAGGCUGAUUGGGACTT against 1700080E11Rik,inactive: 0.0648
2,GGCACAGAAAAUCUCUGAUTT against Psmd3,inactive: -3.24
3,GGUAUUGACCAAGAAGAAATT against Taf12,inactive: -1.94
4,GGUAUUAUCUAACUCUAGCTT against Mftc,inactive: 0.669
5,GGAGAUGGCUAUAUUCUGATT against Lip1,inactive: 1.07
6,GGAAGUUCAUCAUGAUAUCTT against Cxadr,inactive: 1.63
7,GGUUCUUAUCUCUAUUCAGTT against Olfr1270,inactive: 0.79
8,GCAGCAGAACUUUUUUGCCTT against Hif1an,inactive: 0.205
9,GCGAUCCAGGAGCUAUCAATT against Helb,inactive: 0.0707
10,CCCAACUGUUCAGAAAAUATT against Olfr1212,inactive: -1.22
11,GGUCAAUUGGAAAUAAGAATT against Hiat1,inactive: 0.936
12,GCUAACAGCAUCCUUUUUGTT against V1rb1,inactive: -0.693
13,GGAAGAACAGGAUUGUGAATT against Gpr156,inactive: -0.393
14,GGAUUUAGAUUUUUCCCUCTT against Alox12e,inactive: 1
15,CCCACCAAUGUCAGCGUGUTT against LOC238447,inactive: -0.707
16,GGCCUUCGUUGAAUUCUUGTT against C1qbp,inactive: -0.386
17,GCAAGAAACACGGAGGUGATT against Olfr1231,inactive: -1.17
18,GCAAGCUAGAGAAAAUCAGTT against Serpinb3b,inactive: 0.33
19,GAUGAAAUCUAAAGAUGGGTT against Olfr178,inactive: -0.278
20,GCAAUAGGCUUUUAUUGUCTT against 5930422O12Rik,inactive: -0.25
21,GGAGACCUUCCAGAACACATT against Mesdc2,inactive: 0.846
22,GGUGUCAUAGACAUGAAAATT against Armc8,inactive: -0.358

row,Sequence,z-score
1,CGCUACGUCCAGUAUCACCTT against 3110005G23Rik,inactive: 0.233
2,GGUCCAUACAAGUGUUUGATT against Camk2b,inactive: -0.885
3,GCAAGCCCAUUGAUCAGAGTT against 5930416I19Rik,inactive: 0.603
4,GGGUUUUUUUUUCCUUGAATT against 2410004J23Rik,inactive: -0.0707
5,GGUGAAUUUUCAGUUGAUATT against 1200009K13Rik,inactive: -1.29
6,GGUGAAGAAAGCACUAGUUTT against Olfr979,inactive: -0.324
7,GCCCAAGACGAAAAGAUACTT against Mrpl9,inactive: 1.87
8,GCGUGGGAGACAAAUGAAATT against Sstr5,inactive: 2.49
9,GCUUUCUACUAAGCCUGCUTT against 9630018L10Rik,inactive: -0.361
10,GGCAAUGUGCCCAAUAUCATT against Rfc2,inactive: -2.4
11,GGAGAAGUUGUUCAGGGAATT against Brms1,inactive: -0.965
12,GGUGAGAAGCCUUACCUCUTT against C130032F08Rik,inactive: -1.36
13,GGGAGCCAGGAGAAGUUGUTT against Spin,inactive: -0.374
14,GCCUGUUCUAUGUUACUGGTT against Olfr320,inactive: 0.626
15,GCAUCAAGAGAUCUGAUUATT against Ris2,inactive: -2.29
16,CCGGAGCUUUAUUGACACGTT against Rbm19,inactive: -1.51
17,GGAUUCUUUCAGGGUCUAATT against Olfr658,inactive: -0.74
18,CCGUUGUUCAUAAUUGUGATT against 2610528K11Rik,inactive: 0.556
19,CCCAGCGCACUUACAUGUCTT against Gpaa1,inactive: 0.859
20,GGCAACUCAUGAACUCUCGTT against BC027057,inactive: 0.96
21,GGCACGAGGCAGAAUUUUATT against Kctd3,inactive: 1.94
22,GGCAUCAAUAGGAAGAUGCTT against Rgs19,inactive: 0.116

# Fetched one by one from above, 2 records:
row,Sequence,z-score
5,GGUGAAUUUUCAGUUGAUATT against 1200009K13Rik,inactive: -1.29
7,GCCCAAGACGAAAAGAUACTT against Mrpl9,inactive: 1.87

# The list continues.

row,Sequence,z-score
1,GGCUCCAAAGUUUGUGCUGTT against Grin3b,inactive: -1.3
2,GGGAAAAGAUGUUUCUAUCTT against Ifi44,inactive: -0.106
3,GCAAUACGAAGGCGAAAGCTT against 1110036O03Rik,inactive: 0.85
4,GCUAAUCGAAGUUGAAAUUTT against 6330407J23Rik,inactive: 0.467
5,CCAAAUUGUCUCUUCUAACTT against Dnahc1,inactive: 1.74
6,GGAUGUUUGCUAGCUUCCCTT against Hba-a1,inactive: 0.96
7,GCUGAAUCAUUGAUUUACCTT against 1300007B12Rik,inactive: 0.237
8,GCUCAGCUUAUGACCACGUTT against Mapk3,inactive: 0.0455
9,GGAUAUCAAGGGAUCAGACTT against Chchd4,inactive: 1.51
10,GGGAUAUCUAAUCAAAACCTT against Siat8e,inactive: 1.13
11,GGGCCAGAGUCAGAAAAGGTT against Ebp,inactive: 0.491
12,GGCGUGAAGAAUUUGUCAATT against Prc1,inactive: 0.225
13,GGGCAUGGCUGUCUUACUCTT against 1500001H12Rik,inactive: 0.783
14,GGUGCUGAAGCUACGCUAUTT against Wnt9b,inactive: -0.558
15,GGCCAUGGAAAAAUCUCAGTT against Dtna,inactive: 0.772
16,GGUAGAAUUCAAUGUAUCATT against Arhgap17,inactive: -0.118
17,CCUCUUAUUCAGAAUGUCCTT against Bnc2,inactive: -0.513
18,GGUCAGACUUGAUUAUUUGTT against F830104G03Rik,inactive: 1.2
19,CGAAAAGGUGGACUUUUAGTT against Rnf4,inactive: 0.895
20,GCCAACCUUAGGAGACAUCTT against Zfp40,inactive: -0.0946
21,GGAUAAUUCACAGUUCAAATT against Tlk1,inactive: 0.479
22,GGGUCUAAGGGUUCCGUUATT against 1300007F04Rik,inactive: -0.506
